Source: US6747041B1, “Heterocyclic dicarboxylic acid diamide derivatives, agricultural/horticultural insecticides and method of using the same” (Nihon Nohyaku Co., Ltd., priority 1999, dated 2004)
Some results were stated once for a whole list of compounds, not compound by compound.

System: Smaller Tea Tortrix (Adoxophyes sp.)
Experiment: Insecticidal effect on smaller tea tortrix (Test Example 2)
Assay type: in vivo
Conditions: 500 ppm, tea leaf immersed about 30 seconds, larvae of smaller tea tortrix, eight days after the inoculation, 25° C., humidity 70%

Cc1cc(C(F)(C(F)(F)F)C(F)(F)F)ccc1NC(=O)c1ccnc(Cl)c1C(=O)NC(C)C [Compound No. 524, 2-chloro-4-[4-(heptafluoro-2-propyl)-2-methylphenyl]aminocarbonyl-3-pyridinecarboxylic acid 2-propylamide]
corrected mortality: ≥ 90%

Cc1cc(C(F)(C(F)(F)F)C(F)(F)F)ccc1NC(=O)c1cnccc1C(=O)NC(C)C [Compound No. 230, 3-[4-(heptafluoro-2-propyl)-2-methylphenyl]aminocarbonyl-4-pyridinecarboxylic acid-2-propylamide]
corrected mortality: ≥ 90%

Cc1cc(C(F)(C(F)(F)F)C(F)(F)F)ccc1NC(=O)c1ccncc1C(=O)NC(C)C [Compound No. 512, 4-[4-(heptafluoro-2-propyl)-2-methylphenyl]amino-carbonyl-3-pyridinecarboxylic acid-2-propylamide]
corrected mortality: ≥ 90%
